PubChem BioAssay AID504774 – Drosophila RNAi Screening Center, 2011

Aim: 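Genes required for cells to withstand methyl methanesulphonate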 (primary screen)
System: Drosophila Kc167 cells
Knock-down reagent: long dsRNA against Drosophila genes, about 0.25 µg dsRNA per well
Timing: about 6 days: 3 days knock-down, then 3 days with or without MMS
Challenge: methyl methanesulphonate 0.004% (w/v) for 3 days after knock-down
Detection: 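Viability in wells given MMS, read as ATP luminescence, normalised by quantiles plate by plate and averaged across replicates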
Direction: mean viability with MMS: higher = more surviving cells after MMS
The deposit covers about 23,000 reagents; shown is a random part of those with a known target gene and a result. 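Values are quantile-normalised luminescence on an arbitrary scale; higher means more cells surviving MMS.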 Reagents against one gene are numbered here. Further read-outs or replicates are left out here.

Cyp6a2 (Cytochrome P450 6a2)
- mean viability with MMS: 3.21e6

Fer2 (48 related 2)
- mean viability with MMS: 3.55e6

CG13875
- mean viability with MMS: 3.59e6

CG33012 #1
- mean viability with MMS: 3.68e6

CG33012 #2
- mean viability with MMS: 3.77e6

CG5245
- mean viability with MMS: 3.65e6

CG14234 #1
- mean viability with MMS: 3.41e6

CG14234 #2
- mean viability with MMS: 3.53e6

CG42233 #1
- mean viability with MMS: 3.66e6

CG42233 #2
- mean viability with MMS: 3.57e6

Miga (Mitoguardin)
- mean viability with MMS: 3.59e6

CG17974
- mean viability with MMS: 3.72e6

MED26 (Mediator complex subunit 26) #1
- mean viability with MMS: 3.00e6

MED26 (Mediator complex subunit 26) #2
- mean viability with MMS: 2.83e6

MED26 (Mediator complex subunit 26) #3
- mean viability with MMS: 2.73e6

CG4045
- mean viability with MMS: 3.56e6

Cubn2 (Cubilin 2) #1
- mean viability with MMS: 3.59e6

Cubn2 (Cubilin 2) #2
- mean viability with MMS: 3.65e6

ics (icarus)
- mean viability with MMS: 3.55e6

Tis11 (Tis11 zinc finger protein) #1
- mean viability with MMS: 2.60e6

Tis11 (Tis11 zinc finger protein) #2
- mean viability with MMS: 3.77e6

Agxt (Alanine-glyoxylate aminotransferase)
- mean viability with MMS: 3.67e6

CG3448
- mean viability with MMS: 3.53e6

CG10311
- mean viability with MMS: 3.69e6

Rbp (RIM-binding protein) #1
- mean viability with MMS: 2.97e6

Rbp (RIM-binding protein) #2
- mean viability with MMS: 3.49e6

nwk (nervous wreck)
- mean viability with MMS: 3.38e6

Sgp (Sgroppino)
- mean viability with MMS: 3.49e6

PIP82
- mean viability with MMS: 3.78e6

CG32087
- mean viability with MMS: 3.54e6

barc (barricade)
- mean viability with MMS: 3.23e6

beat-IV (beaten path IV) #1
- mean viability with MMS: 3.63e6

beat-IV (beaten path IV) #2
- mean viability with MMS: 3.35e6

Culd (CUB and LDLa domain)
- mean viability with MMS: 3.56e6

Cks30A (Cyclin-dependent kinase subunit 30A)
- mean viability with MMS: 3.59e6

No new results follow: entries from further up.
PIP82
- mean viability with MMS: 3.78e6

CG32087
- mean viability with MMS: 3.54e6
